Results on one compound are retold here after patent US9931355B2, “Combination of compounds derived from gallic acid for the treatment of cancer” (PONTIFICLA UNIVERSIDAD JAVERIANA, priority 2012, dated 2018).

The subject of the assay is MCF7 (human breast cancer). Briefly: MTT cytotoxicity assay on MCF7 cells. It is filed as cell-based. Conditions: 48 hours, read-out: 50% inhibitory concentration. On the procedure:
The human cell lines used were K562 (human erythroleukemia) MCF7 (human breast cancer) and A375 (human melanoma). The murine cell lines used were Mel Rel (murine melanoma) and 4T1 (murine mammary cancer). […] The cell line 4T1 was also maintained with 1 mM of sodium pyruvate (Eurobio, Toulouse, FR). For the assays on normal cells, human mononucleocytes from the venous peripheral blood of healthy donors (PBMC) were obtained, and were separated by centrifugation using a Ficoll-Hypaque density gradient (GE Healthcare Bio-Sciences AB, Bjorkgatan, Uppsala, Sweden). The cytotoxic effect of the combination of the invention on tumor cells and normal cells was evaluated by direct microscopic observation and via assays with MTT (Sigma, Saint Louis Mo., USA). […] The formazan crystals were dissolved with dimethyl sulfoxide (DMSO) and the optical density was measured at 540 nm in a Multiskan MCC/340 machine (Labsystems, Thermo Fisher Scientific, Waltham, USA). The cytotoxic effect of FA-CS was evaluated with MTT on various tumoral cell lines. The […] value on the various cell lines was calculated using the Minitab software. […]

Structures are written as SMILES.

Regarding `COc1cccc2c1C(=O)c1c(O)c3c(c(O)c1C2=O)C[C@@](O)(C(=O)CO)C[C@@H]3O[C@H]1C[C@H](N)[C@H](O)[C@H](C)O1` [Doxorubicin], the IC50 was 5.3 ± 0.5 mg/L.
